Data published in PMC6345502, “Vancomycin does not affect the enzymatic activities of purified VanSA” (PLoS ONE, 2019).
No constants are given. Whether binding was seen depends on the method and setting. Some results given as binding are weak or reduced against the parent protein; the word gives no strength.

Target: cytosolic domain of VanSA (enterococci) (UniProt Q06240)
Experiment: SEC; size exclusion chromatography of cVanSA, data not shown; both purified

B1: cytosolic domain of VanSA (domain or fragment, UniProt Q06240 98-384)
chain: MVKFAKYFDEINTGIDVLIQNEDKQIELSAEMDVMEQKLNTLKRTLEKREQDAKLAEQRKNDVVMYLAHDIKTPLTSIIGYLSLLDEAPDMPVDQKAKYVHITLDKAYRLEQLIDEFFEITRYNLQTITLTKTHIDLYYMLVQMTDEFYPQLSAHGKQAVIHAPEDLTVSGDPDKLARVFNNILKNAAAYSEDNSIIDITAGLSGDVVSIEFKNTGSIPKDKLAAIFEKFYRLDNARSSDTGGAGLGLAIAKEIIVQHGGQIYAESNDNYTTFRVELPAMPDLVDKRRS
binding: binds
